These are yes or no findings as the source states them, for the method shown.

The assay has as its target BcThsA^SIR2 (residues 1-284) (Bacilus cereus MSX-D12) (UniProt J8G6Z1). In words: SEC-MALS. On the technique in general: SEC sorts molecules by how far they enter the pores of the column.

B1: BcThsA^SIR2 (residues 1-284) (domain or fragment, UniProt J8G6Z1 1-284)
chain: MKMNPIVELFIKDFTKEVMEENAAIFAGAGLSMSVGYVSWAKLLEPIAQEIGLDVNKENDLVSLAQYYCNENQGNRGRINQIILDEFSRKVDLTENHKILARLPIHTYWTTNYDRLIEKALEEENKIADVKYTVKQLATTKVKRDAVVYKMHGDVEHPSEAVLIKDDYEKYSIKMDPYIKALSGDLVSKTFLFVGFSFTDPNLDYILSRVRSAYERDQRRHYCLIKKEERRPDELEADFEYRVRKQELFISDLSRFNIKTIVLNNYNEITEILQRIENNIKTKT
Regarding B1, the binding result is “no binding”.
